In the supplement of paper PMC10849652:
The list shows a part of the results.

Sequences of proteins named here, by UniProt entry; tags and fusion partners are left off. A change or cut given only in a name is not applied to a line headed by its entry.
UniProt Q9NWS6: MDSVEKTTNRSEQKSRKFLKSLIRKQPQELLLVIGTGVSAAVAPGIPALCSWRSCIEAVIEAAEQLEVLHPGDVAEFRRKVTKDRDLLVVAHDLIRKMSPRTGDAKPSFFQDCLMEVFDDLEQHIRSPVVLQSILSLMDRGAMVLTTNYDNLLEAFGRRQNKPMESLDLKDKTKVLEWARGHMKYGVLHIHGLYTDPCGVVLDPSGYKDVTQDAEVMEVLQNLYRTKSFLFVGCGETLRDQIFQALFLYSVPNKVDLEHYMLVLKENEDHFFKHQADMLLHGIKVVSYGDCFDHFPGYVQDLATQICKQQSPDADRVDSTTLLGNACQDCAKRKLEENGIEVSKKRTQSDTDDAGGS
UniProt Q8TAG9: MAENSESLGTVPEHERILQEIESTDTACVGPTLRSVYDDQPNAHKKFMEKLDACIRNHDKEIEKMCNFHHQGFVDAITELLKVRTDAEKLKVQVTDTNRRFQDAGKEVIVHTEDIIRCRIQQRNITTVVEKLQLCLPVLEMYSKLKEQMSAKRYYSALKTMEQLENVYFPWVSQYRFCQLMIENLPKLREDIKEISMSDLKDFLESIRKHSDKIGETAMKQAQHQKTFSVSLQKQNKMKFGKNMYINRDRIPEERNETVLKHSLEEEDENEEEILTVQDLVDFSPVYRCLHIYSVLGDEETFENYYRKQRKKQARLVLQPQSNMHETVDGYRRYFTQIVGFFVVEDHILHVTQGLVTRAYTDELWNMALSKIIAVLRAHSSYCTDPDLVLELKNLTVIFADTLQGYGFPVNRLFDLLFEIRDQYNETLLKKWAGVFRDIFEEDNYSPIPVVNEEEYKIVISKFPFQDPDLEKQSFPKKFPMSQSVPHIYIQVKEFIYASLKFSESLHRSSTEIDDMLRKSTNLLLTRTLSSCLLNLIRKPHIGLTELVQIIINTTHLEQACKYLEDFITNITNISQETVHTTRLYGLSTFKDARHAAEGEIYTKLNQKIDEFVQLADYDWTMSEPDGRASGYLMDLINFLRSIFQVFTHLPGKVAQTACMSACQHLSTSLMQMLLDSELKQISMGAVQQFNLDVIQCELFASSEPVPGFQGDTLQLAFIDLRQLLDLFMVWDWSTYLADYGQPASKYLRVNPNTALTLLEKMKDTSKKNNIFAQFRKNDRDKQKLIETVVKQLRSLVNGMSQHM
UniProt Q96E09: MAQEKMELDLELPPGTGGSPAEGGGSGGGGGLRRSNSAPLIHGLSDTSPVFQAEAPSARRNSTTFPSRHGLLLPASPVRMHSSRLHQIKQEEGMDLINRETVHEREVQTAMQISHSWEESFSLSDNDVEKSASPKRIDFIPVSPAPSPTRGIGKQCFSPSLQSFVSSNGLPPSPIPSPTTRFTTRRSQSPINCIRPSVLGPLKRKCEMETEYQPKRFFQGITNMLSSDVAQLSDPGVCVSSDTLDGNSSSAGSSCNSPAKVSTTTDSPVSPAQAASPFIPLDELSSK
UniProt Q9UNN5: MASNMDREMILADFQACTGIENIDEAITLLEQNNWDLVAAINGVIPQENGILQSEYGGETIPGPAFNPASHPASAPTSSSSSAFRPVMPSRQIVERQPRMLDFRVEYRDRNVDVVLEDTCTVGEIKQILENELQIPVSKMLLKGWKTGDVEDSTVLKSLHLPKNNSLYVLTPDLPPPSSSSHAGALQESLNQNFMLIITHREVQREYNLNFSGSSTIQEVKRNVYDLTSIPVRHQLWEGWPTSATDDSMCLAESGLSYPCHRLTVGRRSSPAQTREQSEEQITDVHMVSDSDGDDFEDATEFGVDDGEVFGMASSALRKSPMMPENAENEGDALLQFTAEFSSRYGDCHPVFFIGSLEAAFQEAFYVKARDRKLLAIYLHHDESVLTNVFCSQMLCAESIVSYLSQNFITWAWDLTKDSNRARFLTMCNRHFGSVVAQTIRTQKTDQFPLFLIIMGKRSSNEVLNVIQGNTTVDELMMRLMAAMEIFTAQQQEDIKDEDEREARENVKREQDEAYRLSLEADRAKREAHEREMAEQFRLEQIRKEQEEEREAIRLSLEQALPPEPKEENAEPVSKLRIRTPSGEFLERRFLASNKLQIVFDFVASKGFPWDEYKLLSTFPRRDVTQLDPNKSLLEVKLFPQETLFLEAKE
UniProt O60645: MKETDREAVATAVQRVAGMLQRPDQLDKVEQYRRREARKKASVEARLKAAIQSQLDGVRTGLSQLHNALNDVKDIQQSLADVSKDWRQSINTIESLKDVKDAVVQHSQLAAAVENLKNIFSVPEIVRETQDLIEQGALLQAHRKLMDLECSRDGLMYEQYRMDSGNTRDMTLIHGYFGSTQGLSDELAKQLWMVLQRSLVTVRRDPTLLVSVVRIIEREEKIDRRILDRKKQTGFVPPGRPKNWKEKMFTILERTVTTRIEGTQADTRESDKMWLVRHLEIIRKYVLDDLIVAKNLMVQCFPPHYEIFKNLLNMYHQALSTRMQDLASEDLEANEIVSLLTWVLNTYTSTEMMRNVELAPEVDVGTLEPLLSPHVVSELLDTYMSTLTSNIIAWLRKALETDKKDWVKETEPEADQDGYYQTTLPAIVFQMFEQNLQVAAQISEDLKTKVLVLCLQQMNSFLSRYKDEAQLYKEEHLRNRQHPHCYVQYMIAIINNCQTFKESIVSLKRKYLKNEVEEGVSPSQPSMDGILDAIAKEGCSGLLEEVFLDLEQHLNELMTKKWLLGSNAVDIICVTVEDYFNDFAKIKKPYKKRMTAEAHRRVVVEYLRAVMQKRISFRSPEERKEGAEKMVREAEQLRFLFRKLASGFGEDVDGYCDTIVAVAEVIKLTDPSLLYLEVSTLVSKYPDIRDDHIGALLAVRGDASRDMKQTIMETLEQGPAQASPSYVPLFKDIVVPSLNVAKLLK
UniProt Q969X5: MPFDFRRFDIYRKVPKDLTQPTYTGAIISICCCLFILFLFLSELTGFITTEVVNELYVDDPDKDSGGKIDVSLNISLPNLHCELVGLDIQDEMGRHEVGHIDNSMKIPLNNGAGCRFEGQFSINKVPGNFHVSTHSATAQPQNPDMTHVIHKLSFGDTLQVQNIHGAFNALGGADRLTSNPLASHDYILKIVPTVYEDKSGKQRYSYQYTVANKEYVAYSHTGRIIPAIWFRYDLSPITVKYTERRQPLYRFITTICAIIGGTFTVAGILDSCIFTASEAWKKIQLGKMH
UniProt Q86UK5: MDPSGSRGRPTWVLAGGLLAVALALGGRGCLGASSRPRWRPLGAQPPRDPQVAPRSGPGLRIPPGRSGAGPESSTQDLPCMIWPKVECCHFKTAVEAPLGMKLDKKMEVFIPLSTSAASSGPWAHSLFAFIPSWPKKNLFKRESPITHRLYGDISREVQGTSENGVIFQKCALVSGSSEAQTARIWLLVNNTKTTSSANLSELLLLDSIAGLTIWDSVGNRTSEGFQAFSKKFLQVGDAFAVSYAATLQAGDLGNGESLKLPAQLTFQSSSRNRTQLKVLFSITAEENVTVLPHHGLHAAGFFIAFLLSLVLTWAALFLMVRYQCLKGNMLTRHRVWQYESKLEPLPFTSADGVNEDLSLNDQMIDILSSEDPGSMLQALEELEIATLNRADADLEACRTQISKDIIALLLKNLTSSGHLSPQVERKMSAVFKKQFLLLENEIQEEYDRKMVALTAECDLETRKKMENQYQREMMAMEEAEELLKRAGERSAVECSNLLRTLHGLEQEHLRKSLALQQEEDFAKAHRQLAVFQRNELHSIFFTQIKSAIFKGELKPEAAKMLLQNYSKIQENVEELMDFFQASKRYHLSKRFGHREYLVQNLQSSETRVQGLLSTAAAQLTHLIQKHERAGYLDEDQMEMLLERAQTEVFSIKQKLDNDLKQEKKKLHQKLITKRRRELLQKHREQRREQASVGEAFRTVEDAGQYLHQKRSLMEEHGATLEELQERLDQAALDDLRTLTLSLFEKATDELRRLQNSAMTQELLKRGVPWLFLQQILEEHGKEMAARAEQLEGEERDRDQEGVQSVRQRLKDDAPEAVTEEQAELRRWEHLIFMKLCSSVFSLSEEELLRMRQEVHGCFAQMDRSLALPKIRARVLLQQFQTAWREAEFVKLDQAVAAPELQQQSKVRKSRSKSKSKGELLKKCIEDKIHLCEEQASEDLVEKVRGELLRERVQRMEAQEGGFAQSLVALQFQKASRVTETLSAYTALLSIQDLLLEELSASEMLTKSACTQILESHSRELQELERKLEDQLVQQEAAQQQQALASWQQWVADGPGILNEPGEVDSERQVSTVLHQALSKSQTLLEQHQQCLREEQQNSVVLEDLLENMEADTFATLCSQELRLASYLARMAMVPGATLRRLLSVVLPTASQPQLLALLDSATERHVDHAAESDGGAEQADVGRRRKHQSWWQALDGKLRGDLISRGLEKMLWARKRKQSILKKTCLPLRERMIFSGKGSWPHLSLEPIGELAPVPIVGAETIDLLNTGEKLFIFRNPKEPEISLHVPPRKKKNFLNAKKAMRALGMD
UniProt Q96CS3: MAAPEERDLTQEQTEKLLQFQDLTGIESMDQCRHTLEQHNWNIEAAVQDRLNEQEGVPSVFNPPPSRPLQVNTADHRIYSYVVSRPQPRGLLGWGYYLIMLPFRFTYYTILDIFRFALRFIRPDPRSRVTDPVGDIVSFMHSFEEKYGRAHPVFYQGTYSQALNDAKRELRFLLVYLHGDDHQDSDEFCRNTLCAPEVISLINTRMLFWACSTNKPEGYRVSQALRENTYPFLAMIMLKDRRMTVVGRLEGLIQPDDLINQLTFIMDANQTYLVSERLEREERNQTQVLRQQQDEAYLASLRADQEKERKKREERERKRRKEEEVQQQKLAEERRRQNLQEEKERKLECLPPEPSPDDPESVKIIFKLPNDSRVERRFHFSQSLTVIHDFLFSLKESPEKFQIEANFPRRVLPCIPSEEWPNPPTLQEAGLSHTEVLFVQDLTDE
UniProt Q96RQ1: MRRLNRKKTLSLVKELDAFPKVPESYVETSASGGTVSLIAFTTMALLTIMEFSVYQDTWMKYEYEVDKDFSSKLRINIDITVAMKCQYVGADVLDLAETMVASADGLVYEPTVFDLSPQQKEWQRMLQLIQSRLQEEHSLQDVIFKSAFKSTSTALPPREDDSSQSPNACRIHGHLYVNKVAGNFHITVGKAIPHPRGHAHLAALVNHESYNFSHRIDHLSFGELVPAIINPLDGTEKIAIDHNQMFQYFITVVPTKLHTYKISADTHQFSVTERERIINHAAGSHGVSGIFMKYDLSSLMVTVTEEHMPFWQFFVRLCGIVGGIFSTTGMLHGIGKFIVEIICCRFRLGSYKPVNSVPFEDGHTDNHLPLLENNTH
UniProt Q5W0V3: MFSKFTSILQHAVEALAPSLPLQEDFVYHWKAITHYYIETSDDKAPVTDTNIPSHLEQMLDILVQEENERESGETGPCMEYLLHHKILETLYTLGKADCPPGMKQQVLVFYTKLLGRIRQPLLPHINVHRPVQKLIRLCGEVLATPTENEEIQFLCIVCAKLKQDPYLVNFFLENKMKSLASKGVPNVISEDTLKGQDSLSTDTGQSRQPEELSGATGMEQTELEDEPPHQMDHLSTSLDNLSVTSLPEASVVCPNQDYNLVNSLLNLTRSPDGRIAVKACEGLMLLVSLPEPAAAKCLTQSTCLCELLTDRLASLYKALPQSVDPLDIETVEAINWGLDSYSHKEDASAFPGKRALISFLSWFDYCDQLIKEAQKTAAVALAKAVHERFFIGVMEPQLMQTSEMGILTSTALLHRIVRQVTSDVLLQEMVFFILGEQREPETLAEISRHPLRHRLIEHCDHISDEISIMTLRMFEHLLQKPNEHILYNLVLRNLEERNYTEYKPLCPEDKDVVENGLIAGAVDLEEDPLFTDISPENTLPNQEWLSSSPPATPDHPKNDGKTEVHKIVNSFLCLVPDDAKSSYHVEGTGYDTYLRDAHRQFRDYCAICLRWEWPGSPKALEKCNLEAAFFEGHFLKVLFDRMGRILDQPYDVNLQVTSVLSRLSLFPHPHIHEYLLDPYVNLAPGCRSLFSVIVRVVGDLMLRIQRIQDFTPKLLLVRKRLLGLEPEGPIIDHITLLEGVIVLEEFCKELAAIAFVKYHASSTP
UniProt Q96GK7: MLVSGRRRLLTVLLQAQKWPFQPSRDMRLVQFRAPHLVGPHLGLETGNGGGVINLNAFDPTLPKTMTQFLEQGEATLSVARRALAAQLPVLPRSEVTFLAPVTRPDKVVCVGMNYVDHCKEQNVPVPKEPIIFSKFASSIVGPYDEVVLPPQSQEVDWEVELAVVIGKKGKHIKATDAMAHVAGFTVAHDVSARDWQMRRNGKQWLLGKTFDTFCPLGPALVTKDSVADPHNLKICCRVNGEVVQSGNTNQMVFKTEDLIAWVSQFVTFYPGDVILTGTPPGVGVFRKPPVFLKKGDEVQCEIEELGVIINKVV

Assays:
Assay in all cases: log2 fold change, soluble protein after heating vs DMSO (PISA); higher = thermal stabilisation; K562 cells, 10 uM, 30 min; active = over 0.2 and 3.5 SD of the protein, either way, in both replicates (recomputed)
bafetinib = compound: Cc1ccc(NC(=O)c2ccc(CN3CC[C@H](N(C)C)C3)c(C(F)(F)F)c2)cc1Nc1nccc(-c2cncnc2)n1 [bafetinib]
In short: (§1)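 K562 cells (2×10^6 cells/mL) were treated with 10 μM compound for 30 min, and aliquots were heated for 3 min over 48°C-58°C. Pooled aliquots were extracted in PBS with 0.5% NP-40 at 4°C, and the supernatant after 21,000xg for 90 min was measured by TMTpro 16plex LC-MS/MS with channel sums equalised. Reported thermal stability, relative to control samples and from duplicates, is a log2 fold change.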

[1] = compound: Cc1cccc(CC(=O)N2CCc3c2ccc(-c2cn(C)c4ncnc(N)c24)c3F)n1
In short: as §1

nilotinib = compound: Cc1cn(-c2cc(NC(=O)c3ccc(C)c(Nc4nccc(-c5cccnc5)n4)c3)cc(C(F)(F)F)c2)cn1 [nilotinib]
In short: as §1

[2] = compound: Cc1nc(Nc2n[nH]c3c2CN(C(=O)N[C@H](CN(C)C)c2ccccc2)C3(C)C)c2sccc2n1
In short: as §1

dasatinib = compound: Cc1nc(Nc2ncc(C(=O)Nc3c(C)cccc3Cl)s2)cc(N2CCN(CCO)CC2)n1 [dasatinib]
In short: as §1

[3] = compound: Cc1ncc(-c2ccnc(Nc3ccc(S(C)(=O)=O)cc3)n2)n1C(C)C
In short: as §1

[4] = compound: Cn1cc(-c2ccc3c(c2)CCN3C(=O)Cc2cccc(C(F)(F)F)c2)c2c(N)ncnc21
In short: as §1

[5] = compound: Cn1cc(-c2ccc3nnc(C(F)(F)c4ccc5ncccc5c4)n3n2)cn1
In short: as §1

tipifarnib = compound: Cn1cncc1[C@@](N)(c1ccc(Cl)cc1)c1ccc2c(c1)c(-c1cccc(Cl)c1)cc(=O)n2C [tipifarnib]
In short: as §1

mubritinib = compound: FC(F)(F)c1ccc(/C=C/c2nc(COc3ccc(CCCCn4ccnn4)cc3)co2)cc1 [mubritinib]
In short: as §1

[6] = compound: NC(=O)Nc1cc(-c2cccc(F)c2)sc1C(=O)N[C@H]1CCCNC1
In short: as §1

[7] = compound: NC(=O)c1cnc(N[C@@H]2CCCC[C@@H]2N)nc1Nc1cccc(-n2nccn2)c1
In short: as §1

[8] = compound: NC1(c2ccc(-c3nc4ccn5c(=O)[nH]nc5c4cc3-c3ccccc3)cc2)CCC1
In short: as §1

[9] = compound: NCC(=O)Nc1ccc(-n2nc(C(F)(F)F)cc2-c2ccc3c(ccc4ccccc43)c2)cc1
In short: as §1

entinostat = compound: Nc1ccccc1NC(=O)c1ccc(CNC(=O)OCc2cccnc2)cc1 [entinostat]
In short: as §1

vorinostat = compound: O=C(CCCCCCC(=O)Nc1ccccc1)NO [vorinostat]
In short: as §1

citarinostat = compound: O=C(CCCCCCNC(=O)c1cnc(N(c2ccccc2)c2ccccc2Cl)nc1)NO [citarinostat]
In short: as §1

silmitasertib = compound: O=C(O)c1ccc2c(c1)nc(Nc1cccc(Cl)c1)c1ccncc12 [silmitasertib]
In short: as §1

[10] = compound: O=C1NC(=O)C(c2cnc3ccccn23)=C1c1cn2c3c(cc(F)cc13)CN(C(=O)N1CCCCC1)CC2
In short: as §1

[11] = compound: c1cc(OCCN2CCCCC2)cc(-c2n[nH]c3ccc(-c4nnc[nH]4)cc23)c1
In short: as §1

Target | log2 fold change (bafetinib) | log2 fold change [1] | log2 fold change (nilotinib) | log2 fold change [2] | log2 fold change (dasatinib) | log2 fold change [3] | log2 fold change [4] | log2 fold change [5] | log2 fold change (tipifarnib) | log2 fold change (mubritinib) | log2 fold change [6] | log2 fold change [7] | log2 fold change [8] | log2 fold change [9] | log2 fold change (entinostat) | log2 fold change (vorinostat) | log2 fold change (citarinostat) | log2 fold change (silmitasertib) | log2 fold change [10] | log2 fold change [11]
FAM118A (UniProt Q9NWS6) | inactive: -0.076 | inactive: 0 | inactive: -0.092 | inactive: -0.216 | inactive: -0.314 | inactive: -0.039 | inactive: -0.019 | inactive: 0.135 | inactive: -0.128 | inactive: 0.043 | inactive: 0.052 | inactive: -0.129 | inactive: -0.351 | inactive: 0.015 | inactive: 0.149 | inactive: 0.054 | inactive: -0.289 | inactive: 0.166 | inactive: -0.088 | inactive: 0.322
EXOC6 (UniProt Q8TAG9) | inactive: -0.013 | inactive: 0.036 | inactive: -0.013 | inactive: -0.196 | inactive: -0.22 | inactive: -0.013 | inactive: 0.042 | inactive: 0.028 | inactive: -0.076 | inactive: 0.07 | inactive: -0.052 | inactive: -0.091 | inactive: -0.258 | inactive: -0.078 | inactive: 0.045 | active: 0.324 | inactive: 0.023 | inactive: 0.049 | inactive: 0.03 | inactive: 0.007
FAM122A (UniProt Q96E09) | inactive: -0.096 | inactive: -0.185 | inactive: 0.027 | inactive: -0.184 | inactive: -0.054 | inactive: 0.059 | inactive: 0.024 | inactive: 0.037 | inactive: -0.059 | inactive: 0.009 | inactive: -0.031 | inactive: 0.076 | inactive: -0.048 | inactive: 0.023 | inactive: 0.143 | inactive: 0.025 | inactive: -0.009 | inactive: 0.005 | inactive: -0.052 | inactive: 0.062
FAF1 (UniProt Q9UNN5) | inactive: -0.065 | inactive: 0.013 | inactive: -0.003 | inactive: -0.034 | inactive: 0.044 | inactive: -0.007 | inactive: -0.001 | inactive: 0.005 | inactive: -0.001 | inactive: 0.041 | inactive: 0.015 | inactive: -0.063 | inactive: -0.049 | inactive: 0.001 | inactive: -0.009 | inactive: 0.009 | inactive: 0.029 | inactive: 0.009 | inactive: -0.044 | inactive: -0.013
EXOC3 (UniProt O60645) | inactive: -0.001 | inactive: 0.105 | inactive: -0.008 | inactive: -0.195 | inactive: -0.144 | inactive: 0.002 | inactive: 0.121 | inactive: -0.012 | inactive: -0.081 | inactive: 0.047 | inactive: -0.007 | inactive: -0.175 | inactive: -0.123 | inactive: -0.075 | inactive: 0.036 | inactive: 0.16 | inactive: 0.006 | inactive: 0.055 | inactive: 0.028 | inactive: -0.067
ERGIC1 (UniProt Q969X5) | inactive: -0.086 | inactive: -0.03 | inactive: 0.021 | inactive: -0.011 | inactive: 0.008 | inactive: 0.003 | inactive: 0.049 | inactive: 0.022 | inactive: -0.008 | inactive: 0.034 | inactive: -0.105 | inactive: -0.052 | inactive: -0.068 | inactive: -0.027 | inactive: -0.054 | inactive: 0.071 | inactive: 0.073 | inactive: -0.004 | inactive: -0.004 | inactive: -0.002
EVC2 (UniProt Q86UK5) | inactive: -0.08 | inactive: 0.023 | inactive: -0.066 | inactive: -0.092 | inactive: -0.043 | inactive: 0.131 | inactive: -0.149 | inactive: -0.148 | inactive: 0.162 | inactive: -0.053 | inactive: -0.074 | inactive: -0.129 | inactive: 0.013 | inactive: -0.268 | inactive: 0.004 | inactive: -0.071 | inactive: 0.024 | inactive: -0.042 | inactive: 0.024 | inactive: -0.114
FAF2 (UniProt Q96CS3) | inactive: -0.058 | inactive: -0.022 | inactive: -0.042 | inactive: -0.049 | inactive: -0.075 | inactive: 0 | inactive: 0.017 | inactive: -0.04 | inactive: -0.021 | inactive: -0.011 | inactive: -0.016 | inactive: -0.038 | inactive: -0.038 | inactive: -0.027 | inactive: 0.021 | inactive: 0.092 | inactive: 0.015 | inactive: 0.007 | inactive: -0.054 | inactive: -0.018
ERGIC2 (UniProt Q96RQ1) | inactive: -0.105 | inactive: 0.027 | inactive: -0.038 | inactive: -0.002 | inactive: -0.024 | inactive: -0.019 | inactive: 0.057 | inactive: 0.017 | inactive: -0.013 | inactive: 0.055 | inactive: 0.003 | inactive: -0.034 | inactive: -0.069 | inactive: -0.044 | inactive: -0.015 | inactive: 0.051 | inactive: 0 | inactive: -0.031 | inactive: -0.045 | inactive: 0
ERCC6 (UniProt Q03468) | active: -0.775 | inactive: -0.016 | inactive: 0.041 | inactive: -0.087 | inactive: -0.043 | inactive: -0.021 | inactive: 0.129 | inactive: -0.094 | inactive: 0.019 | inactive: 0.059 | inactive: -0.288 | inactive: -0.022 | inactive: -0.062 | inactive: 0.034 | inactive: -0.191 | inactive: -0.003 | inactive: -0.213 | inactive: 0.079 | inactive: 0.013 | inactive: -0.236
FADS1, A0A0A0MR51 | inactive: -0.03 | inactive: 0.062 | inactive: 0.004 | inactive: -0.005 | inactive: 0.011 | inactive: -0.019 | active: 0.253 | inactive: -0.045 | inactive: -0.021 | inactive: 0.028 | inactive: -0.041 | inactive: -0.036 | inactive: -0.074 | inactive: 0.036 | inactive: -0.002 | inactive: -0.105 | inactive: -0.029 | inactive: 0.014 | inactive: -0.15 | inactive: -0.029
ERCC5 (UniProt P28715) | inactive: -0.116 | inactive: 0.025 | inactive: 0.043 | inactive: -0.099 | inactive: -0.024 | inactive: -0.062 | inactive: 0 | inactive: -0.008 | inactive: 0.082 | inactive: 0.109 | inactive: 0.033 | inactive: 0.025 | inactive: -0.33 | inactive: 0.046 | inactive: -0.017 | inactive: 0.078 | inactive: -0.066 | inactive: -0.176 | inactive: 0.027 | inactive: -0.141
EXOSC7 (UniProt Q15024) | inactive: -0.034 | inactive: -0.052 | inactive: -0.004 | inactive: 0.055 | inactive: 0.037 | inactive: -0.01 | inactive: -0.04 | inactive: 0.049 | inactive: 0.015 | inactive: -0.003 | inactive: 0.018 | inactive: -0.015 | inactive: 0.023 | inactive: 0.01 | inactive: -0.046 | inactive: -0.043 | inactive: 0.003 | inactive: 0.019 | inactive: -0.004 | inactive: -0.078
FAM160B1 (UniProt Q5W0V3) | inactive: -0.018 | inactive: 0.023 | inactive: -0.032 | inactive: -0.049 | inactive: -0.082 | inactive: -0.014 | inactive: -0.053 | inactive: -0.039 | inactive: 0.115 | inactive: 0.023 | inactive: 0.04 | inactive: -0.038 | active: -0.211 | inactive: -0.043 | inactive: 0.026 | inactive: 0.139 | inactive: 0.069 | inactive: -0.026 | inactive: -0.064 | inactive: 0
FAHD2A (UniProt Q96GK7) | inactive: -0.07 | inactive: -0.02 | inactive: 0.069 | inactive: 0.078 | inactive: 0.025 | inactive: 0.006 | inactive: 0.046 | inactive: 0.032 | inactive: -0.003 | inactive: 0.018 | inactive: -0.025 | inactive: 0.003 | inactive: 0.016 | inactive: 0.009 | inactive: -0.031 | inactive: 0.034 | inactive: 0.034 | inactive: -0.016 | inactive: -0.03 | inactive: -0.05
ETFA (UniProt P13804) | inactive: -0.035 | inactive: 0.006 | inactive: 0.019 | inactive: 0.008 | inactive: -0.026 | inactive: 0.011 | inactive: 0.043 | inactive: 0.048 | inactive: -0.022 | inactive: 0.014 | inactive: -0.077 | inactive: -0.044 | inactive: -0.032 | inactive: -0.007 | inactive: -0.029 | inactive: 0.001 | inactive: 0.021 | inactive: 0.007 | inactive: -0.014 | inactive: -0.026

A section from further up, for reference:
Target | log2 fold change (bafetinib) | log2 fold change [1] | log2 fold change (nilotinib) | log2 fold change [2] | log2 fold change (dasatinib) | log2 fold change [3] | log2 fold change [4] | log2 fold change [5] | log2 fold change (tipifarnib) | log2 fold change (mubritinib) | log2 fold change [6] | log2 fold change [7] | log2 fold change [8] | log2 fold change [9] | log2 fold change (entinostat) | log2 fold change (vorinostat) | log2 fold change (citarinostat) | log2 fold change (silmitasertib) | log2 fold change [10] | log2 fold change [11]
ERCC6 (UniProt Q03468) | active: -0.775 | inactive: -0.016 | inactive: 0.041 | inactive: -0.087 | inactive: -0.043 | inactive: -0.021 | inactive: 0.129 | inactive: -0.094 | inactive: 0.019 | inactive: 0.059 | inactive: -0.288 | inactive: -0.022 | inactive: -0.062 | inactive: 0.034 | inactive: -0.191 | inactive: -0.003 | inactive: -0.213 | inactive: 0.079 | inactive: 0.013 | inactive: -0.236
FADS1, A0A0A0MR51 | inactive: -0.03 | inactive: 0.062 | inactive: 0.004 | inactive: -0.005 | inactive: 0.011 | inactive: -0.019 | active: 0.253 | inactive: -0.045 | inactive: -0.021 | inactive: 0.028 | inactive: -0.041 | inactive: -0.036 | inactive: -0.074 | inactive: 0.036 | inactive: -0.002 | inactive: -0.105 | inactive: -0.029 | inactive: 0.014 | inactive: -0.15 | inactive: -0.029
